Assay results reported in the supplement of paper PMC11237882.
The list shows a part of the results. Values are worked out from sequencing counts and are noisy.

T1: Homer1 EVH1 domain
T1 chain: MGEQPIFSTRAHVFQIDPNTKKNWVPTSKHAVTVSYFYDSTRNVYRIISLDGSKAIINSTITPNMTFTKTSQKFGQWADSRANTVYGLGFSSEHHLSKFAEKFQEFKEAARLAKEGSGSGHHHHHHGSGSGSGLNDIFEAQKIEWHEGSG


Target: T1, Homer1 EVH1 domain
Assay: enrichment score (AUC of log2 frequency ratio across FACS sorting rounds) (log2 AUC); higher = stronger enrichment for Homer1 EVH1 binding
In the case of PPPVPGNLLVPPPPVFNAPQGLGWSQVPRGQPTFTK, the enrichment score is reported as 1.57.
Work on SSSFSSSRASSSRSGGGGHGSSRGFGGGGYGGFYNS yielded an enrichment score of -0.704.
With NTKEFWSFIYSVAALACIAITEITFFMGYTIATILH the enrichment score was 3.47.
For GVASALAMALIGAVSSYISYQQKKFCFSIQQGLNAH, the enrichment score was 3.59.
HRYNFYLQHPINVNNIIIDTILIITTLIPISVHVHS was tested, and the enrichment score was -1.15.
For KTFFSLKRIRRHIITHSGYTPYKCKVCGKAFDYPSR, the enrichment score was 1.98.
GLSAVPPTRVPGPLAPRRRRYTLTPARLRWDHFNLT was tested, and the enrichment score was -0.112.
For ILMSSGPSIGIKDYNILTRITQLGIIISLICLAICI, the enrichment score was 0.675.
Binder GVCLLWVAFFECFVIAWIYGGDNLYDGIEDMIGYRP has an enrichment score of 1.28.
Binder QEPLTLSWGHLPSRPSRSWASLLAWLSWLSWLSLMS has an enrichment score of 2.75.
For LMPAKFVRCAYVIILMAIYWCTEVIPLAVTSLMPVL, the enrichment score was -1.54.
In the case of RLKTHSGPNATPEDKQLAALCYCCLALLYWRMFRLK, the enrichment score is reported as 2.57.
ELDMENEFLLPPVFGEEYEEQPRPRSKKKGAKRKAV showed an enrichment score of -0.454.
In the case of MSALWLLLGLLALMDLSESSNWGCYGNIQSLDTPGA, the enrichment score is reported as 0.551.
Binder ITAWYIGFLTLILSSFLVYLVEKDVPEVDAQGEEMK has an enrichment score of 3.79.
For KMALETHFWTWINHLVTWGSIIFYFVFSLFYGGILW, the enrichment score was 3.4.
VVPLLEGLRAKWNKVLWSHGNSRIQFCGRNALAMPV showed an enrichment score of -2.47.
In the case of MAILLACFTAVLAFICLQFWCVRCHEPRWSYRAGHM, the enrichment score is reported as -0.731.
With MRPGAPGPLWPLPWGALAWAVGFVSSMGSGNPAPGG the enrichment score was 1.43.
Binder GTPTYVAPEIIAETGYGLKVDIWAAGVITYILLCGF has an enrichment score of -2.23.
FLKNSSKQEKARASAETFRSAKYHNALLCLLFLFFF showed an enrichment score of 3.17.
For KHDHIVSTIYSTFGAFYIPLALILILYYKIYRAAKT, the enrichment score was 4.64.
PLLDLTNSIITAVFLSVVAILAMQEKKRRHLLYVGG showed an enrichment score of 2.76.
For MARHGCLGLGLFCCVLFAATVGPQPTPSIPGAPATT, the enrichment score was 1.52.
In the case of MGSLFPLSLLFFLAAAYPGVGSALGRRTKRAQSPKG, the enrichment score is reported as 3.46.
With RLSRIAFPLLFGIFNLVYWATYLNREPQLKAPTPHQ the enrichment score was 2.04.
Binder IILSLFVMGGVYFVCQRVVCQRYAGANGPFPHEYVS has an enrichment score of -0.729.
With KIKQLNLAMINYVLVVYGLAISLLGIGQPEELSEAE the enrichment score was 2.34.
With PIIYYSVCYSIVSLMYFIGFLLGDSTACNKADAKLE the enrichment score was 3.44.
With WVFGSGLCKVAGALFNINFYAGALLLACISFDRYLN the enrichment score was 1.97.
Work on TEEHFPEPDNAIFTQRVITGTMALLFSFFFIIFIVF yielded an enrichment score of -0.0106.
For EQLALRNEEAENESSKLRRENKRLKKKNEQLCQDII, the enrichment score was -0.0992.
TKTLLLPVVLVVFVAIVRKIISDMWGVLAKQQTHVR showed an enrichment score of -1.95.
GALCLMVDFILIAVSYTLILKTVPGIASKKEELKAL showed an enrichment score of -1.91.
MRLRNGTVATALAFITSFLTLSWYTTWQNGKEKLIA gave an enrichment score of 1.03.
For MQRLMMLLATSGACLGLLAVAAVAAAGANPAQRDTH, the enrichment score was 5.22.
For PEPTVSPVNASDIHWSSSSLPDRWIILGAFILLVLM, the enrichment score was 3.36.
TNVLIFFWCLAFLWGLLILLKYRWRKLEEEEQAMYE was tested, and the enrichment score was 3.1.
With LPLKEARLKVFNTCIPHIYVFFQFYLLAFFFIFYSQ the enrichment score was 3.19.
For LPPEHSDVVIVGGGVLGLSVAYWLKKLESRRGAIRV, the enrichment score was 0.378.
IWEYSVLIIVMACMEYEMGKKKCERYWAEPGEMQLE was tested, and the enrichment score was 1.65.
In the case of DGETIFMYMFLAGLGPLVIVGLHQLLESRKRKRPIQ, the enrichment score is reported as 4.27.
MGTRGAVMPPPMWGLLGCCFVCAWALGGPRPIRSLP gave an enrichment score of 3.34.
With GINMKIPPFISKGEIMNVWFHFTCLVSFSSFIYFAS the enrichment score was 1.59.
